Results as given in patent US4103005A, “Novel-enkephalin analogs” (Hoffmann-La Roche Inc., priority 1977, dated 1978).

System: male ICR mice
Assay: Analgesic assay by the tail-flick method in mice
Assay type: in vivo
Settings: relative to morphine sulfate = 1, molar basis
Experimental: For analgesic assay, male ICR mice weighing 25-30 g were used in all the experiments. The enkephalin analogs dissolved in saline were administered either centrally according to the method described by Haley and McCormick, Br. J. Pharmacol, 12, 12 (1957) or intravenously via the tail vein. The injection volume is 5 μl for central injection and 10 μl per gram body weight for intravenous injection. Naloxone HCl (3 mg/kg) was injected subcutaneously 5 min before the administration of enkephalin analogs. Analgesic activity was assayed by the tail-flick method of D'Amour and Smith, J. Pharmacol, Exp. Ther. 72, 74 (1941).
The percent of analgesia was calculated as [(T1 -T0)/(T2 -T0)] × 100, where a control latency (T0) was obtained from the mean of two latencies determined before drug injection; the test latencies (T1) were determined at various times after injection for each animal; the cutoff time (T2) for the tail-flick was 7 seconds. The median analgesic dose (AD50) and 95% confidence limits were calculated according to the method of Litchfield and Wilcoxon, J. Pharacol. Exp. Ther. 96, 99 (1949). The locomotor activity to the mice was measured with an electronic Fe 40 motility meter (Motron Produkter, Stockholm, Sweden). The detail of the experimental method has been described by Tseng et al., Nature (London) 263, 239 (1976).

With `CN1CC[C@]23c4c5ccc(O)c4O[C@H]2[C@@H](O)C=C[C@H]3[C@H]1C5.O=S(=O)(O)O` [Morphine sulfate, reference compound] the Intracerebroventricular potency ratio (intracerebroventricular) was 1 and the Intravenous potency ratio (intravenous) was 1.
